# The whole screen tested about 320,000 compounds, of which about 2,100 (0.66%) were called active. Inconclusive results, whose numbers are uncertain, are shown with a selection of clear calls. The call rests on the fitted dose curve; in most records, active means well fitted inhibition curve with a large enough effect in the signal ratio, with a control signal flat (not every such curve was filed as active); inconclusive means small, poorly fitted or top-dose-only effect, or effect the other way, or a change in a side signal; inactive means flat fitted curve, though single readings scatter; the % refers to the signal ratio. Potencies beside an inconclusive call are fits to weak or partial responses and may not hold up.
# Assay: qHTS Assay for Lipid Storage Modulators in Drosophila S3 Cells
# Conditions: BODIPY lipid droplet fluorescence, 18-24 h, cells fed with added oleic acid; lipid storage change, negative = inhibition: at 46.1 µM (top of the series) unless noted
# Method in brief: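 Drosophila S3 cells loaded with oleic acid (400 uM, as added) and compounds at several concentrations; lipid droplets imaged by 488-nm laser-scanning cytometry, 500–530 nm intensity and object ratio to cell channel. Percent activity normalized to 20 uM Triacsin C.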
# On the % scale 0 is the no-effect control and ±100 the full control effect; potency means the concentration at half of the fitted maximal effect.
Compound,"lipid storage change, negative = inhibition",Potency
Cc1cc(=O)oc2c3c(cc(OCC(=O)N[C@H](C(=O)O)c4ccccc4)c12)OC(C)(C)CC3,inconclusive: 16.7%,
CC(NC(=O)c1ccc(-c2ccccc2)cc1)C(c1ccccc1)N1CCOCC1 (centres undefined),,"inconclusive: 23.1 µM [falling, partial curve, poor fit]"
COc1cccc(OCC(=O)Nc2ccc(OC)c(OC)c2)c1,,"inconclusive: 8.2 µM [activator, partial curve]"
Cc1ccc(S(=O)(=O)/N=C/N(C)C)cc1,inconclusive: -58.1%,
CN(C)c1ccc(C2/C(=C(/O)c3ccccc3)C(=O)C(=O)N2CCCC(=O)O)cc1 (centres undefined),,"inconclusive: 7.31 µM [falling, partial curve]"
Cc1ccc(Nc2nc3ccccc3c(=O)s2)cc1,inconclusive: 27.9%,
COc1ccc(CN(C)C(=O)CCc2ccc(S(=O)(=O)N3CCCCCC3)cc2)c(OC)c1,inconclusive: -27.9%,
Cc1cc(C)c(C#N)c(SCc2ccccc2[N+](=O)[O-])n1,,"inconclusive: 4.61 µM [activator, full curve, poor fit]"
Cc1ccc(C=Nc2ccccc2C(N)=O)cc1,inconclusive: 40.1%,
CSCCC(NC(=O)c1ccc([N+](=O)[O-])cc1Cl)C(=O)OCC(=O)NCC(F)(F)F (centres undefined),inconclusive: 23.6%,
Cc1nc2cc(C(F)(F)F)ccc2n1CCNc1nc(-c2ccc(F)cc2)cs1,inconclusive: 20%,
O=C(CN1CC[n+]2c(-c3cccs3)csc21)c1ccc(-c2ccccc2)cc1,,"inconclusive: 32.6 µM [falling, partial curve, poor fit]"
O=C(N/N=C/c1ccco1)c1ccn[nH]1,inconclusive: -8.37%,
CC(=O)Oc1ccc2oc3c(c2c1)C(=O)CCC3,inconclusive: 0.842%,
CC(=O)N1CCN(C(=O)CCNS(=O)(=O)c2ccccc2)CC1,,"inconclusive: 29.1 µM [cytotoxic, single point]"
N#CC1=C(N)NC(=S)C(C(N)=O)C1c1ccccc1F (centres undefined),inconclusive: -0.964%,
COc1ccc(NC(=O)c2cc(S(=O)(=O)N3CCCCC3)ccc2N2CCCCC2)cn1,,"inconclusive: 29.1 µM [falling, single point]"
Cn1cc(CN2CCC(C(=O)Nc3cccc(-c4cccc(F)c4)c3)CC2)cn1,,"inconclusive: 18.4 µM [activator, single point]"
O=C1CCC(C(=O)OCc2nnc(-c3ccccc3)o2)=NN1,inconclusive: 32.1%,
COc1ccccc1N(CCC#N)C(=O)COC(=O)CCC(=O)c1ccc(F)cc1,inconclusive: -18.3%,
COc1cc(S(=O)(=O)NCc2ccc3c(c2)OCO3)c(OC)cc1C,inconclusive: 39.8%,
Cc1ccccc1-c1noc(C2CCCCC2)n1,inconclusive: 7.27%,
COc1cc2c(cc1OC)C1(Nc3c-2c(-c2ccccc2)nn3-c2ccccc2)C(=O)Nc2ccccc21 (centres undefined),,"inconclusive: 23.1 µM [activator, partial curve]"
Cc1ccc(NC(=S)NNC(=O)Cn2nc(C(F)F)cc2C(F)F)cc1,inconclusive: -3.81%,
OC1(CNCc2cn[nH]c2-c2cc3ccccc3o2)CCCCC1,inconclusive: 8.05%,

Compound,"lipid storage change, negative = inhibition",Potency
CCc1ccc(OCC2c3cc(OC)c(OC)cc3CCN2C(=S)NCCOC)cc1 (centres undefined),inconclusive: -55.8%,
CC1(C)CC(NC(=O)C(F)(F)F)CC(C)(C)N1OC(=O)c1ccco1,inconclusive: -56.6%,
Cc1ccc(-c2nc(C=Nc3ccccc3)c(O)o2)cc1,inconclusive: 10.2%,
C=CCn1c(C)cc(C2=NNC(=NC(C)(C)C)SC2)c1C,inconclusive: -46.8%,
COc1cc(C(=O)NCCOc2cc(C)cc(C)c2)cc(OC)c1OC,inactive,
CS(=O)(=O)c1ccc(-c2nn[nH]n2)cc1,inconclusive: -23.8%,
COc1cc(OC)c(C2C(C#N)=C(N)OC3=C2C(=O)CC(C)(C)C3)cc1OC (centres undefined),inconclusive: 60.6%,
Cc1nn(Cc2noc(C(=O)NCC3CCCO3)n2)c(C)c1Br (centres undefined),,"inconclusive: 29.1 µM [activator, single point]"
COc1ccccc1C(=O)NCC(C)(C)CN=C1NS(=O)(=O)c2ccccc21,,"inconclusive: 7.31 µM [falling, single point]"
COc1ccc(NC(=O)CCCN2C(=O)C(c3ccccc3)Oc3cccnc32)cc1 (centres undefined),,"inconclusive: 6.51 µM [activator, single point]"
Cc1ccc(NC(=O)CSc2n[nH]c(-c3ccncc3)n2)cc1C,,"inconclusive: 4.11 µM [rising, full curve]"
COCCCNC(=S)N1CCN(C)CC1,inconclusive: -26%,
CC(=O)c1ccc(NC(=O)C(C)OC(=O)c2ccc(Br)o2)cc1 (centres undefined),inconclusive: -57.5%,
COc1ccc(NC(=O)c2[nH]c(C)c(C(C)=O)c2C)cc1S(=O)(=O)N1CCOCC1,,"inconclusive: 0.461 µM [falling, full curve, poor fit]"
CCc1ccccc1NC(=O)CN(C)C(=O)CSc1nnc(Nc2ccc(C)cc2)s1,inconclusive: 16.7%,
O=C(Nc1nccs1)C1CCN(S(=O)(=O)c2cccnc2)CC1,inconclusive: 15.4% [at 9.22 µM],
O=C(NCc1cccc2[nH]ccc12)C1CCC(=O)N(CCc2ccc(Cl)cc2)C1 (centres undefined),,"inconclusive: 0.291 µM [falling, full curve, poor fit]"
C(=N\Nc1nc(N2CCCCC2)nc(N2CCCCC2)n1)/c1c[nH]c2ccccc12,inconclusive: -56.8%,
O=C(OCC(=O)N1CCCC1)c1c(Cl)cccc1Cl,,"inconclusive: 29.1 µM [activator, single point]"
CCN(CC)S(=O)(=O)c1cccc(NC(=O)c2ccc(SC)cc2OC)c1,inactive,
CCCSc1ncnc2c1oc1ccccc12,inconclusive: 14.3%,
CCOc1ccc(NC(=O)N2CCC(NC(=O)c3ccco3)CC2)cc1,inconclusive: -3.76%,
COc1ccc(/C=c2/sc3n(c2=O)C(c2ccccc2OC)C2=C(N=3)c3ccccc3CC2)cc1O (centres undefined),inactive,
COCCNC(=O)CN(C)S(=O)(=O)c1ccc(Br)cc1,inconclusive: 7.3%,

# Structures shown so far that contain a COOH group:
Compound,"lipid storage change, negative = inhibition",Potency
Cc1cc(=O)oc2c3c(cc(OCC(=O)N[C@H](C(=O)O)c4ccccc4)c12)OC(C)(C)CC3,inconclusive: 16.7%,
CN(C)c1ccc(C2/C(=C(/O)c3ccccc3)C(=O)C(=O)N2CCCC(=O)O)cc1 (centres undefined),,"inconclusive: 7.31 µM [falling, partial curve]"

# Source: PubChem BioAssay AID2685 (National Center for Advancing Translational Sciences (NCATS), 2010)
